In one assay the target is CE-OsELF4c (rice). The assay can be described thus: split reporter; BiFC with pSPYNE and pSPYCE fusions, equal concentration mixtures co-transformed into rice protoplasts; fluorescence imaged by confocal microscopy.
The next assay concerns the target CE-OsLUX (rice). Described as above.
The target of the next assay is CE-OsELF4b (rice). The assay is described as above.
A further assay deals with CE-OsELF4a (rice). The assay is described as above.
Assay [1] has as its target OsELF4a in pGBKT7 (rice (Nipponbare, japonica)). Put plainly: two-hybrid; yeast two-hybrid, pGBKT7 baits and pGADT7 preys co-transformed into Y187; growth on selective SD media (-Trp-Leu-His-Ade) with X-alpha-Gal.
Assay [2] has as its target OsLUX in pGBKT7 (rice (Nipponbare, japonica)). The assay is described as above.
In a further assay the target is OsLUX-GFP (rice). Put plainly: co-IP; GFP and MYC fusions transiently co-expressed in rice protoplasts for 16 h; lysate on GFP-Nanoab-Agarose, washed four times; western blot with anti-Myc or anti-GFP. In general terms: Immunoblotting shows a protein as a band on a membrane.
The target of a further assay is OsELF4a-GFP (rice). The description is as above.

Results are given in words; binding and its absence hold for the method and conditions named. For some assays here: Binding calls can cover weak binding; strength is not graded here. For some assays here: Binding seen in cells or lysates may run through a third protein. For some assays here: Tags and fused reporters may be left off the sequences shown.

B1: NE-OsELF3a (protein, UniProt Q9SNQ6 1-760)
chain: MATRGGGGGGGGKEAKGKVMGPLFPRLHVNDAAKGGGPRAPPRNKMALYEQFTVPSHRFSGGGGGGGVGGSPAHSTSAASQSQSQSQVYGRDSSLFQPFNVPSNRPGHSTEKINSDKINKKISGSRKELGMLSSQTKGMDIYASRSTAEAPQRRAENTIKSSSGKRLADDDEFMVPSVFNSRFPQYSTQENAGVQDQSTPLVAANPHKSPSTVSKSSTKCYNTVSKKLERIHVSDVKSRTPLKDKEMEAAQTSKNVEVEKSSSFHASKDMFESRHAKVYPKMDKTGIINDSDEPHGGNSGHQATSRNGGSMKFQNPPMRRNEISSNPSSENTDRHYNLPQGGIEETGTKRKRLLEQHDAEKSDDVSRLLEQHDAENIDDVSDSSVECITGWEISPDKIVGAIGTKHFWKARRAIMNQQRVFAVQVFELHKLVKVQKLIAASPHVLIESDPCLGNALLGSKNKLVEENLKAQPLLVATIDDVEPSLQQPEVSKENTEDSPPSPHDTGLGSGQRDQAATNGVSKSNRRATPVASDNKQNNWGVQLQPPQNQWLVPVMSPLEGLVYKPYSGPCPPAGSILAPFYANCTPLSLPSTAGDFMNSAYGVPMPHQPQHMGAPGPPSMPMNYFPPFSIPVMNPTAPAPVVEQGRHPSMPQPYGNFEQQSWISCNMSHPSGIWRFHASRDSEAQASSASSPFDRFQCSGSGPVSAFPTVSAQNNQPQPSYSSRDNQTNVIKVVPHNSRTASESAARIFRSIQMERQRDD
On to B1, for which the binding entry with CE-OsELF4c (rice) is “no binding”; with CE-OsLUX (rice), “binds”; in the assay with CE-OsELF4b (rice), “no binding”; in the assay with CE-OsELF4a (rice) it was “binds”.

B2: OsELF3a in pGADT7 (protein, UniProt Q9SNQ6 1-760)
chain: MATRGGGGGGGGKEAKGKVMGPLFPRLHVNDAAKGGGPRAPPRNKMALYEQFTVPSHRFSGGGGGGGVGGSPAHSTSAASQSQSQSQVYGRDSSLFQPFNVPSNRPGHSTEKINSDKINKKISGSRKELGMLSSQTKGMDIYASRSTAEAPQRRAENTIKSSSGKRLADDDEFMVPSVFNSRFPQYSTQENAGVQDQSTPLVAANPHKSPSTVSKSSTKCYNTVSKKLERIHVSDVKSRTPLKDKEMEAAQTSKNVEVEKSSSFHASKDMFESRHAKVYPKMDKTGIINDSDEPHGGNSGHQATSRNGGSMKFQNPPMRRNEISSNPSSENTDRHYNLPQGGIEETGTKRKRLLEQHDAEKSDDVSRLLEQHDAENIDDVSDSSVECITGWEISPDKIVGAIGTKHFWKARRAIMNQQRVFAVQVFELHKLVKVQKLIAASPHVLIESDPCLGNALLGSKNKLVEENLKAQPLLVATIDDVEPSLQQPEVSKENTEDSPPSPHDTGLGSGQRDQAATNGVSKSNRRATPVASDNKQNNWGVQLQPPQNQWLVPVMSPLEGLVYKPYSGPCPPAGSILAPFYANCTPLSLPSTAGDFMNSAYGVPMPHQPQHMGAPGPPSMPMNYFPPFSIPVMNPTAPAPVVEQGRHPSMPQPYGNFEQQSWISCNMSHPSGIWRFHASRDSEAQASSASSPFDRFQCSGSGPVSAFPTVSAQNNQPQPSYSSRDNQTNVIKVVPHNSRTASESAARIFRSIQMERQRDD
With B2, the binding entry in assay [1] and in assay [2] was “binds” in each case.

B3: OsELF3a-MYC (protein, UniProt Q9SNQ6 1-760)
chain: MATRGGGGGGGGKEAKGKVMGPLFPRLHVNDAAKGGGPRAPPRNKMALYEQFTVPSHRFSGGGGGGGVGGSPAHSTSAASQSQSQSQVYGRDSSLFQPFNVPSNRPGHSTEKINSDKINKKISGSRKELGMLSSQTKGMDIYASRSTAEAPQRRAENTIKSSSGKRLADDDEFMVPSVFNSRFPQYSTQENAGVQDQSTPLVAANPHKSPSTVSKSSTKCYNTVSKKLERIHVSDVKSRTPLKDKEMEAAQTSKNVEVEKSSSFHASKDMFESRHAKVYPKMDKTGIINDSDEPHGGNSGHQATSRNGGSMKFQNPPMRRNEISSNPSSENTDRHYNLPQGGIEETGTKRKRLLEQHDAEKSDDVSRLLEQHDAENIDDVSDSSVECITGWEISPDKIVGAIGTKHFWKARRAIMNQQRVFAVQVFELHKLVKVQKLIAASPHVLIESDPCLGNALLGSKNKLVEENLKAQPLLVATIDDVEPSLQQPEVSKENTEDSPPSPHDTGLGSGQRDQAATNGVSKSNRRATPVASDNKQNNWGVQLQPPQNQWLVPVMSPLEGLVYKPYSGPCPPAGSILAPFYANCTPLSLPSTAGDFMNSAYGVPMPHQPQHMGAPGPPSMPMNYFPPFSIPVMNPTAPAPVVEQGRHPSMPQPYGNFEQQSWISCNMSHPSGIWRFHASRDSEAQASSASSPFDRFQCSGSGPVSAFPTVSAQNNQPQPSYSSRDNQTNVIKVVPHNSRTASESAARIFRSIQMERQRDD
For B3, the binding result with OsLUX-GFP (rice) and with OsELF4a-GFP (rice) was “binds” in each case.

These data come from paper PMC8993510.
